In the experiment the test system is A549 cells. Briefly: Cell survival assay. In kind it is cell-based. To be noted: Homo sapiens, A549, 48 h, read-out: IC50 (cytotoxicity).

Molecules are shown by their SMILES.

Turning to `CC(=O)O[C@H]1C(=O)[C@@]2(C)[C@H]([C@H](OC(=O)c3ccccc3)[C@]3(O)C[C@H](OC(=O)[C@H](O)[C@@H](NC(=O)c4ccccc4)c4ccccc4)C(C)=C1C3(C)C)[C@]1(OC(C)=O)CO[C@@H]1C[C@@H]2O` [PTX, paclitaxel], the concentration for half-maximal inhibition (IC50) came to 7.5 ± 2.4 nM.

In general, IC50 refers to the concentration that gives 50% inhibition.
